Reference: the supplement of paper PMC8728848
Some of the results follow.

How the values were obtained:
Experiment in all cases: glycan array binding signal (z-score within array); higher = stronger binding
Conditions in all cases: glycan notation: IUPAC condensed, linker removed
[1] = biological target: GlcNAc(b1-3)Gal(b1-4)GlcNAc(b1-3)Gal(b1-4)GlcNAc(b1-3)Gal(b1-4)GlcNAc(b1-3)Gal(b1-4)GlcNAc(b1-2)[GlcNAc(b1-3)Gal(b1-4)GlcNAc(b1-3)Gal(b1-4)GlcNAc(b1-3)Gal(b1-4)GlcNAc(b1-3)Gal(b1-4)GlcNAc(b1-6)]Man(a1-6)[GlcNAc(b1-3)Gal(b1-4)GlcNAc(b1-3)Gal(b1-4)GlcNAc(b1-3)Gal(b1-4)GlcNAc(b1-3)Gal(b1-4)GlcNAc(b1-2)Man(a1-3)]Man(b1-4)GlcNAc(b1-4)[Fuc(a1-6)]GlcNAc
Outline: (§1)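 Glycan array data came from 3228 arrays in the Consortium for Functional Glycomics database, and only arrays with an available protein sequence were kept. Glycan names were put into IUPAC-condensed notation, and columns mapping to the same glycan were averaged. The binding signal is a within-array Z-score, averaged across arrays of one protein sequence run at different concentrations or buffers and across linkers. A negative Z-score can be read as non-binding.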

[2] = biological target: GlcNAc(b1-3)Gal(b1-4)GlcNAc(b1-3)Gal(b1-4)GlcNAc(b1-3)GalNAc
Outline: as §1

[3] = biological target: GlcNAc(b1-3)Gal(b1-4)GlcNAc(b1-3)GalNAc
Outline: as §1

[4] = biological target: GlcNAc(b1-3)Gal(b1-4)GlcNAc(b1-3)[GlcNAc(b1-3)Gal(b1-4)GlcNAc(b1-3)]GalNAc
Outline: as §1

[5] = biological target: GlcNAc(b1-3)Gal(b1-4)GlcNAc(b1-6)[Gal(b1-3)]GalNAc
Outline: as §1

[6] = biological target: GlcNAc(b1-3)Gal(b1-4)GlcNAc(b1-6)[GlcNAc(b1-3)Gal(b1-3)]GalNAc
Outline: as §1

[7] = biological target: GlcNAc(b1-3)Gal(b1-4)GlcNAc(b1-6)[GlcNAc(b1-3)]Gal(b1-4)GlcNAc
Outline: as §1

GlcNAc(b1-3)GalNAc = biological target: GlcNAc(b1-3)GalNAc
Outline: as §1

GlcNAc(b1-3)Man = biological target: GlcNAc(b1-3)Man
Outline: as §1

[8] = biological target: GlcNAc(b1-3)[GlcNAc(b1-4)][GlcNAc(b1-6)]GlcNAc
Outline: as §1

[9] = biological target: GlcNAc(b1-3)[GlcNAc(b1-6)]Gal(b1-4)GlcNAc
Outline: as §1

[10] = biological target: GlcNAc(b1-3)[GlcNAc(b1-6)]GalNAc
Outline: as §1

[11] = biological target: GlcNAc(b1-4)Gal(b1-4)GlcNAc
Outline: as §1

GlcNAc(b1-4)GlcNAc = biological target: GlcNAc(b1-4)GlcNAc
Outline: as §1

[12] = biological target: GlcNAc(b1-4)GlcNAc(b1-4)GlcNAc
Outline: as §1

[13] = biological target: GlcNAc(b1-4)GlcNAc(b1-4)GlcNAc(b1-4)GlcNAc(b1-4)GlcNAc
Outline: as §1

[14] = biological target: GlcNAc(b1-4)GlcNAc(b1-4)GlcNAc(b1-4)GlcNAc(b1-4)GlcNAc(b1-4)GlcNAc
Outline: as §1

[15] = biological target: GlcNAc(b1-4)[GlcNAc(b1-6)]GalNAc
Outline: as §1

[16] = biological target: GlcNAc(b1-6)Gal(b1-4)GlcNAc
Outline: as §1

GlcNAc(b1-6)GalNAc = biological target: GlcNAc(b1-6)GalNAc
Outline: as §1

[17] = biological target: GlcNAc6S(b1-3)Gal(b1-4)GlcNAc
Outline: as §1

Kdn(a2-3)Gal(b1-3)GalNAc = biological target: Kdn(a2-3)Gal(b1-3)GalNAc
Outline: as §1

Kdn(a2-3)Gal(b1-3)GlcNAc = biological target: Kdn(a2-3)Gal(b1-3)GlcNAc
Outline: as §1

Kdn(a2-3)Gal(b1-4)Glc = biological target: Kdn(a2-3)Gal(b1-4)Glc
Outline: as §1

Kdn(a2-3)Gal(b1-4)GlcNAc = biological target: Kdn(a2-3)Gal(b1-4)GlcNAc
Outline: as §1

[18] = biological target: Kdn(a2-3)Gal(b1-4)[Fuc(a1-3)]GlcNAc
Outline: as §1

Kdn(a2-6)Gal(b1-4)GlcNAc = biological target: Kdn(a2-6)Gal(b1-4)GlcNAc
Outline: as §1

[19] = biological target: Man(a1-2)Man(a1-2)Man(a1-3)Man
Outline: as §1

[20] = biological target: Man(a1-2)Man(a1-2)Man(a1-6)[Man(a1-3)]Man
Outline: as §1

Man(a1-2)Man(a1-3)Man = biological target: Man(a1-2)Man(a1-3)Man
Outline: as §1

B1: CcfD (Bacteroides vulgatus), A6KYX8 (protein)
chain: MKYKNYFKSIIYLALGAFTLGSCEDFLDRQEDEKLTFDKIWESRNTTQQYWLNAMSFLPNENGSLQGDTEPYLGASDECTIAYDRQYRWINFGTWNPSQVPYYKMDHYYKGIRECNIFLQNVYKCSDPLVTKDQLDEWYWQTRFARAYYYFLMMRDYGPVFLLGDDLLDFTASTEELYRPRNTWDQCVNYVVSEMTQCAESGVVLQQSDLPAAKWGLATVGTCHAVISRLLLYSARPLFNGNKLYSTVKNPDAPDFPELSGVKLFPELDNTKWQKAAEAAKKLIDNPCYELYRAGNDNPYEDYYGVTHETWNKELIWTDRYNGLFSWGVGTVPTGVAGTAYGAVGPTQALVDAYAMNTGWYPITGYEADGTPIVEPLSGYELASELEKSSWIYPSGGWSNKADFEIEAPNMYKDREPRFYVTVFFGGNQWLHGNSATSISFAKGGNGNKSHDYPKSGYLCNRFYDHKLNSSEGQWGNITFPVFRLGEIYLNFIEAVLECKKNGVALDPSYEALAMEKWADLRKRAGLDPITSIYGQVSTEELIQLCRKERQIELAFERHRYFDTRTWMIATQTDNGKMYGMNTSCPLDAGMKGTETPDGFWERTAFETRVFQNKHYLYPFSQRELDRNKLLTQNYGW
glycan array binding signal (z-score) [1]: 0.069
glycan array binding signal (z-score) [2]: -0.846
glycan array binding signal (z-score) [3]: -0.754
glycan array binding signal (z-score) [4]: -0.708
glycan array binding signal (z-score) [5]: -0.393
glycan array binding signal (z-score) [6]: -0.322
glycan array binding signal (z-score) [7]: -0.566
glycan array binding signal (z-score) (GlcNAc(b1-3)GalNAc): -0.332
glycan array binding signal (z-score) (GlcNAc(b1-3)Man): -0.81
glycan array binding signal (z-score) [8]: 2.41
glycan array binding signal (z-score) [9]: -1.08
glycan array binding signal (z-score) [10]: -0.942
glycan array binding signal (z-score) [11]: -0.856
glycan array binding signal (z-score) (GlcNAc(b1-4)GlcNAc): -0.663
glycan array binding signal (z-score) [12]: -0.678
glycan array binding signal (z-score) [13]: 0.186
glycan array binding signal (z-score) [14]: -0.658
glycan array binding signal (z-score) [15]: -0.571
glycan array binding signal (z-score) [16]: -0.307
glycan array binding signal (z-score) (GlcNAc(b1-6)GalNAc): -0.134
glycan array binding signal (z-score) [17]: -0.744
glycan array binding signal (z-score) (Kdn(a2-3)Gal(b1-3)GalNAc): 1.1
glycan array binding signal (z-score) (Kdn(a2-3)Gal(b1-3)GlcNAc): -0.388
glycan array binding signal (z-score) (Kdn(a2-3)Gal(b1-4)Glc): 1.84
glycan array binding signal (z-score) (Kdn(a2-3)Gal(b1-4)GlcNAc): -0.719
glycan array binding signal (z-score) [18]: 0.536
glycan array binding signal (z-score) (Kdn(a2-6)Gal(b1-4)GlcNAc): -0.566
glycan array binding signal (z-score) [19]: -0.017
glycan array binding signal (z-score) [20]: -0.139
glycan array binding signal (z-score) (Man(a1-2)Man(a1-3)Man): 0.257
